# Experimental data from PubChem BioAssay (NCATS).
# By UniProt entry, the sequences of proteins in these tests, tags left out. Where a name states a change or a piece, a line headed by the entry shows the natural chain unless it says otherwise.
# UniProt P50135: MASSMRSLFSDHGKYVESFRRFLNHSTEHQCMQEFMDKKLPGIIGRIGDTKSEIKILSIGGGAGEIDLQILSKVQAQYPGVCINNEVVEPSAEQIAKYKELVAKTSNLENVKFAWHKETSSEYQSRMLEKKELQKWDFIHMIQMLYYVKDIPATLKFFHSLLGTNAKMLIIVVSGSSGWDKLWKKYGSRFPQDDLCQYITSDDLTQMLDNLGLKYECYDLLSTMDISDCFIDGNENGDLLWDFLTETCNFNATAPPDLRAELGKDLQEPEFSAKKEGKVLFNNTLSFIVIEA
# UniProt P40261: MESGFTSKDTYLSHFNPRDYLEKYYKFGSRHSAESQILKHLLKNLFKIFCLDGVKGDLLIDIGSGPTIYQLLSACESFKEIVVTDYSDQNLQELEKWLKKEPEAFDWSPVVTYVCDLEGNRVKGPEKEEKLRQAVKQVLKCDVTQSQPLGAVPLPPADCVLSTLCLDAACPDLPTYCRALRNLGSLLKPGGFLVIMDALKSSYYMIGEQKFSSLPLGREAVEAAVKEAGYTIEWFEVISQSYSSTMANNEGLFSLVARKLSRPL
# “And” between values parts separate entries of the source, which are not always exact repeats. Equal values may be shown once. Some of the results follow. Shown are side measurements of this screen, not its main read-out; they come without a call. For some of these results: Compounds called inactive in the main read-out are mostly missing here. The note in brackets gives the kind of curve behind each potency; many fits are weak.
# Assays:
# [1] = Validation of Assay for Modulators of Lamin A Splicing (AID 1459); settings: Lamin A splicing dual RFP/GFP fluorescence reporter, ratio
# Summary of the method: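 Dual-reporter HeLa S3 line (lamin A-EGFP minigene, DsRed2) treated with compounds 48 hrs, 0.5% DMSO final. Endpoint: EGFP/DsRed2 total intensity ratio from laser-scanning microplate cytometry.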
# [2] = qHTS Assay for Modulators of Human Peripheral Myelin Protein 22 (PMP22) Expression/Activity (AID 1967); settings: Cell-based PMP22 reporter, dual-color luciferase ratio
# Summary of the method: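 Engineered MSC80 cells, Pmp22-promoter green and EF-alpha red luciferase reporters; 24h compound treatment at 37 °C. Concentration-response fits on green, red and ratio signals, each overlap-corrected, with %Activity normalized to untreated wells.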
# [3] = qHTS for identification of novel therapeutic agents for treatment of microphthalmiaassociated transcription factor (MiT) renal cell carcinoma (RCC) (AID 1963991); settings: CellTiter-Glo, 48 h; for z-score: stronger effect = lower value
# Summary of the method: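 Three TFE3-fusion RCC cell lines (UOK109, UOK124, UOK145), 500 cells/well, were exposed to the 1912-compound MIPE 4.0 library for 48 hours at 37 C. Viability was read by CellTiter-Glo luminescence, normalised to DMSO (100%) and empty wells (0%), with 11-concentration curve fits.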
# [4] = qHTS Assay for Lipid Storage Modulators (AID 1519); settings: Drosophila S3 cells, BODIPY lipid droplet/cell ratio, laser cytometry, cells loaded with oleic acid
# Summary of the method: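 Cells seeded at 5,000 per well were treated with compounds over a concentration series and loaded with oleic acid (400 uM, as added). Lipid droplet fluorescence (488 nm excitation, 500-530 nm channel) was read by laser-scanning cytometry and normalized to 20 uM Triacsin C.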
# [5] = qHTS Validation Assay to Find Inhibitors of Chronic Active B-Cell Receptor Signaling (AID 485345); settings: ABC-DLBCL cells, chronic BCR signaling reporter
# Summary of the method: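 Read-out: ratio of filter-corrected green (IkappaBalpha fusion) to red (native) luciferase signal in doxycycline-induced TMD8 cells after 4 h at 37C. Titration spanned 46 uM–3 nM; Data were normalised to basal cells and 10 uM MG-132 wells.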
# [6] = target: Histamine N-methyltransferase (Homo sapiens) (UniProt P50135); experiment: Confirmatory Screen for Target Class Profiling of Small Molecule Inhibitors of Methyltransferases (AID 1745852); settings: MTase-Glo luminescence, SAH detection, recombinant enzyme; measured here: HNMT inhibition potency
# [7] = target: Nicotinamide N-methyltransferase (Homo sapiens) (UniProt P40261); experiment: as above; settings: MTase-Glo luminescence, SAH detection, recombinant enzyme; measured here: NNMT inhibition potency
# [8] = A High-Content qHTS Against Drug Library for the Identification of Small Molecules that Inhibit DYT1 Early Onset Primary Dystonia-Associated Cell Pathology (AID 1645839); settings: HEK293 Flp-In EGFP-delE TorsinA, punctate imaging, 48 h; measured here: cell count cytotoxicity
# Summary of the method: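 In this high-content image screen, delE TorsinA mislocalization in inducible Flp-In 293 cells is scored as %pathology, with cell count serving as the counterscreen. Compound exposure lasts 48 h under tetracycline induction in reduced-serum medium.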
# [9] = qHTS drug screen for cell cycle checkpoint inhibitors in PARPi-resistant BRCA-mutant ovarian cancer cell lines. (AID 1963452); settings: PEO1/OlaR viability, CellTiter-Glo luminescence, 96 h; measured here: PEO4 viability
# Summary of the method: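 PEO1, PEO4 and PEO1/OlaR ovarian cancer cells, 600 per well, exposed 96 h at 37C to a dilution series. Viability read by CellTiter-Glo luminescence, normalized to DMSO and empty wells; activity summarized as Z-AUC.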
# [10] = measured here: red reporter channel AC50, EF-alpha promoter control reporter in MSC80 mouse Schwann cells
# [11] = measured here: green reporter channel AC50, mouse Pmp22 promoter in mouse Schwann cells
# [12] = TFE3-RCC UOK109 viability, measured here: UOK109 Z-AUC
# [13] = TFE3-RCC viability, measured here: UOK124 Z-AUC
# [14] = TFE3-RCC viability, measured here: UOK124 cell viability
# [15] = TFE3-RCC viability, measured here: UOK145 Z-AUC
# [16] = TFE3-RCC viability, measured here: UOK145 cell viability
# [17] = measured here: cell count channel max response
# [18] = measured here: cell number channel AC50
# [19] = measured here: lipid (BODIPY) channel AC50
# [20] = measured here: lipid channel max response
# [21] = measured here: CBG/CBR ratio read-out
# [22] = measured here: CBR control luciferase (viability counter)
structure (smiles),measurement,setting,value
C[N+]1(CCCCC[N+]2(C)CCCC2)CCCC1,AC50,[1]; measured here: GFP channel,"35.5 µM [falling, single point]"
same,AC50,[1]; measured here: RFP channel,"35.5 µM [falling, single point]"
same,AC50,[2]; [10],"16.9 µM [rising, single point]"
COc1cc2nc(N3CCN(C(=O)c4ccco4)CC3)nc(N)c2cc1OC,AC50,[1]; measured here: GFP channel,"35.5 µM [falling, single point]"
same,AC50,[1]; measured here: RFP channel,"35.5 µM [falling, single point]"
same,AC50,[2]; [11],"26.9 µM [falling, full curve]"
same,AC50,[2]; [10],"23.9 µM [falling, full curve]"
same,z-score,[3]; [12],0.156
same,z-score,[3]; [13],-0.264
same,AC50,[3]; [14],"18.7 µM [falling, partial curve]"
same,z-score,[3]; [15],0.0389
same,AC50,[3]; [16],"26.4 µM [falling, single point]"
CCCC1O[C@@H]2C[C@H]3[C@@H]4CCC5=CC(=O)C=C[C@]5(C)C4[C@@H](O)C[C@]3(C)[C@]2(C(=O)CO)O1 (stereo partly specified),AC50,[1]; measured here: GFP channel,"6.31 µM [rising, partial curve]"
same,AC50,[1]; measured here: RFP channel,"12.6 µM [rising, single point]"
same,AC50,[2]; [11],"60.1 µM [falling, partial curve, poor fit]"
same,AC50,[2]; [10],"75.7 µM [falling, partial curve, poor fit]"
NC(=Nc1ccccc1)NC(=O)c1nc(Cl)c(N)nc1N,AC50,[1]; measured here: RFP channel,"10 µM [falling, partial curve, poor fit]"
same,max response,[4]; [17],-14.9%
same,AC50,[4]; [18],"4.47 µM [falling, full curve, poor fit]"
same,AC50,[4]; [19],"4.47 µM [falling, full curve, poor fit]"
same,max response,[4]; [20],-15.5%
same,AC50,[2]; [11],"84.9 µM [falling, single point]"
same,AC50,[2]; [10],"33.8 µM [falling, partial curve]"
same,AC50,[5]; [21],"16.4 µM [falling, partial curve]"
same,AC50,[5]; [22],"20.6 µM [falling, partial curve]"
C[C@@]1(C2CCCC2)Cc2cc(OCC(=O)O)c(Cl)c(Cl)c2C1=O,AC50,[1]; measured here: GFP channel,"35.5 µM [rising, single point]"
same,max response,[4]; [17],42.5%
same,max response,[4]; [20],44.6%
same,IC50,[6],"24.3 µM [falling, single point]"
same,IC50,[7],"24.3 µM [falling, partial curve]"
C#CCN1C(C)=C(C(=O)OC)C(c2cccc([N+](=O)[O-])c2)C(C(=O)OCC)=C1C (stereo unspecified),AC50,[1]; measured here: GFP channel,"35.5 µM [rising, single point]"
same,max response,[4]; [17],43.8%
same,AC50,[4]; [18],"0.0158 µM [rising, single point]"
same,AC50,[4]; [19],"0.02 µM [rising, single point]"
same,max response,[4]; [20],45.5%
same,AC50,[2]; [11],"33.8 µM [falling, partial curve]"
same,AC50,[2]; [10],"53.6 µM [falling, partial curve, poor fit]"
same,AC50,[5]; [21],"9.2 µM [falling, partial curve]"
CSc1ccc(C(=O)c2[nH]c(=O)[nH]c2C)cc1,AC50,[1]; measured here: GFP channel,"3.98 µM [rising, full curve]"
same,max response,[4]; [17],-1.43%
same,AC50,[4]; [18],"0.00316 µM [falling, full curve, poor fit]"
same,max response,[4]; [20],1.37%
same,AC50,[2]; [10],"84.9 µM [falling, single point]"
CN(C)c1nc2c(Br)c(Br)c(Br)c(Br)c2[nH]1,AC50,[1]; measured here: RFP channel,"0.891 µM [falling, full curve, poor fit]"
same,max response,[4]; [17],50.3%
same,AC50,[4]; [18],"35.5 µM [rising, partial curve, poor fit]"
same,AC50,[4]; [19],"31.6 µM [rising, partial curve, poor fit]"
same,max response,[4]; [20],51.9%
same,AC50,[2]; [11],"67.5 µM [falling, partial curve, poor fit]"
same,AC50,[2]; [10],"42.6 µM [falling, partial curve]"
same,AC50,[5]; [22],"8.2 µM [falling, partial curve]"
CN(C)CCCN1c2ccccc2CCc2ccc(Cl)cc21,AC50,[1]; measured here: RFP channel,"2.82 µM [falling, full curve, poor fit]"
same,max response,[4]; [17],35.1% and 32.5%
same,max response,[4]; [20],40.9% and 30.3%
same,AC50,[2]; [11],"42.6 µM [falling, full curve]"
same,AC50,[2]; [10],"37.9 µM [falling, full curve]"
same,AC50,[5]; [22],"6.51 µM [rising, single point]"
same,AC50,[8],"3.98 µM [falling, full curve]"
same,AC50,[9],"17.4 µM [falling, partial curve, poor fit]"
same,z-score,[3]; [12],-1.89
same,z-score,[3]; [13],0.146
same,AC50,[3]; [14],"23.5 µM [falling, partial curve]"
same,z-score,[3]; [15],-1.11
same,AC50,[3]; [16],"1.32 µM [falling, full curve]"
NC(=O)NO,AC50,[1]; measured here: GFP channel,"11.2 µM [falling, partial curve]"
same,max response,[4]; [17],17.3%
same,AC50,[4]; [18],"1.78 µM [falling, full curve, poor fit]"
same,AC50,[4]; [19],"1.78 µM [falling, full curve, poor fit]"
same,max response,[4]; [20],16%
same,AC50,[2]; [10],"47.8 µM [falling, partial curve]"
same,AC50,[8],"35.5 µM [falling, single point]"
same,z-score,[3]; [12],-0.868
same,z-score,[3]; [13],-0.218
same,AC50,[3]; [14],"0.935 µM [falling, full curve]"
same,z-score,[3]; [15],-1.75
same,AC50,[3]; [16],"0.833 µM [falling, full curve]"

# Shown with tabs: entries from further up.
structure (smiles)	measurement	setting	value
NC(=Nc1ccccc1)NC(=O)c1nc(Cl)c(N)nc1N	AC50	[5]; [21]	16.4 µM [falling, partial curve]
same	AC50	[5]; [22]	20.6 µM [falling, partial curve]
C[C@@]1(C2CCCC2)Cc2cc(OCC(=O)O)c(Cl)c(Cl)c2C1=O	AC50	[1]; measured here: GFP channel	35.5 µM [rising, single point]
same	max response	[4]; [17]	42.5%
